The exact form of at least one protein or probe is not confirmed. At least one verdict rests on a figure or table, not on a statement of the authors. Where a protein sequence is shown, tags need not be part of it.

This note sets out measurements from publication doi:10.1101/2020.03.22.001966.

The series has as its target T1, C9S SqrR C23S (UniProt D5AT91).
T1 sequence (looked up, limits assumed): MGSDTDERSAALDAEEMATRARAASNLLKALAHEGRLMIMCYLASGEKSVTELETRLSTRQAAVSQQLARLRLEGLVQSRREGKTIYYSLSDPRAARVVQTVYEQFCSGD
In words: fluorescence anisotropy. As to conditions: 300 mM NaCl, value not in material.

Take “TTGCCTATTCATATTCTCATATGTGC (double strand) [0785 (SQR promoter operator, rcc00785)]”: the binding result is on record as “binds”.
